Test results from PubChem BioAssay AID2685 (National Center for Advancing Translational Sciences (NCATS), 2010).
This is one part of the list. The main result of the screen is listed elsewhere. These columns were measured beside it and carry no call. Most of these compounds were active or inconclusive in the main read-out, so they are no random draw. Words in brackets tell the shape of the fitted curve; partial curves, single points and poor fits give uncertain potencies.

Assay: qHTS Assay for Lipid Storage Modulators in Drosophila S3 Cells;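 as to cell number change: cells counted by Cell Tracker Red CMTPX staining in the red channel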
Conditions: BODIPY lipid droplet fluorescence, 18-24 h; for cell number change: measured here: cell count max response, cells fed with added oleic acid
Outline: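 Laser-scanning cytometry quantifies lipid droplet accumulation (500–530 nm total intensity; droplet/cell object ratio) in oleic acid-fed (400 uM added) Drosophila S3 cells treated with a concentration series. 20 uM Triacsin C defined 100% inhibition.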

[1] = measured here: cell number channel AC50, cells fed with added oleic acid
[2] = measured here: lipid fluorescence (Fed channel) AC50, cells fed with added oleic acid

Row | Structure (SMILES) | cell number change | AC50 [1] | AC50 [2]
1 | C[C@H]1CCC(=O)N([C@H](CC#N)Cc2ccccc2)CC1 | 25.6% | 0.291 µM [rising, partial curve, poor fit] | –
2 | Cc1nc(NCc2ccco2)nc2c1C(=O)CC(C)C2 (centres undefined) | 8.44% | – | 29.1 µM [rising, single point]
3 | O=C(N/N=C/c1sc(N2CCOCC2)nc1-c1ccccc1)c1ccccc1Cl | -20.3% | – | –
4 | Cc1ccc(NC(=O)COC(=O)Cn2ccc(C(F)(F)F)n2)cc1Cl | -32.8% | 29.1 µM [falling, single point] | 14.6 µM [falling, partial curve, poor fit]
5 | CCOC(=O)CNC(=O)CSc1ncnc2c1cnn2-c1ccccc1 | 66.6% | 13 µM [rising, partial curve] | 2.31 µM [falling, partial curve]
6 | CCCC(=O)N=C1SC2CS(=O)(=O)CC2N1c1ccc(-c2nc3ccc(C)cc3s2)cc1 (centres undefined) | -18.2% | – | 1.3 µM [falling, partial curve]
7 | CN1CCN(C(=O)c2ccc(N(Cc3ccc(Cl)cc3)S(C)(=O)=O)cc2)CC1 | 20.4% | – | 16.4 µM [rising, single point]
8 | CCN(CC)C(=O)CSC1=Nc2ccccc2C2=NC(c3ccccc3)C(=O)N12 (centres undefined) | 59% | 20.6 µM [rising, single point] | –
9 | COc1cc(NC(=O)CCc2nnc3ccc(NCc4ccco4)nn23)cc(OC)c1 | -18% | – | 29.1 µM [falling, single point]
10 | O=S(=O)(c1ccccc1F)N1CCC(Oc2ccc(-n3cnnn3)cc2)CC1 | -18.2% | – | –
11 | O=c1oc(-c2ccccc2NS(=O)(=O)c2ccc3ccccc3c2)nc2ccccc12 | 3.17% | – | 0.411 µM [rising, full curve, poor fit]
12 | CCC1=C(OC(=O)N(CC)CC)N2C(=O)OC(=NCCc3c[nH]c4ccccc34)[C@]2(Cc2ccccc2)[C@H]2C1=CC[C@H]1C(=O)NC(=O)[C@H]12 | -29.9% | – | 7.31 µM [falling, partial curve, poor fit]
13 | CC(=O)OC(C(=O)Nc1nccs1)c1ccccc1 (centres undefined) | 10.6% | – | 29.1 µM [rising, single point]
14 | COc1ccc(S(=O)(=O)N2CCC(C(N)=O)CC2)cc1C(=O)N1CCCCCC1 | 16.7% | – | –
15 | O=C1CC(N2CCN(C/C=C/c3ccccc3)CC2)C(=O)N1CCc1ccccc1 (centres undefined) | – | – | 20.6 µM [falling, partial curve, poor fit]
16 | CC(C)c1cc(C(C)C)n2nc(N)nc2n1 | -13.1% | – | 0.00461 µM [falling, full curve, poor fit]
17 | Cc1ccc(NC(=O)CN(C)C(=O)COC(=O)CCS(=O)(=O)c2ccc(C)cc2)cc1 | -8.91% | – | 29.1 µM [falling, single point]
18 | O=C(OC1CCOC1=O)c1ccc(CO)cc1 (centres undefined) | – | – | 6.51 µM [falling, single point]
19 | CCOC(=O)c1cccc(OC(=O)CCNC(=O)c2ccc(Cl)cc2)c1 | 21.7% | – | 36.6 µM [rising, partial curve, poor fit]
20 | O=C(CN1C(=O)S/C(=C/c2ccncc2)C1=O)N1CCOCC1 | -0.647% | – | 1.3 µM [rising, partial curve, poor fit]
21 | CCC(C)(C)n1nnnc1C(c1cc2cc(C)ccc2[nH]c1=O)N1CCCC1 (centres undefined) | 162% | 16.4 µM [rising, partial curve] | 6.51 µM [rising, single point]

Arranged by molar mass (descending): five of the compounds above
Row | Structure (SMILES) | cell number change | AC50 [1] | AC50 [2]
14 | COc1ccc(S(=O)(=O)N2CCC(C(N)=O)CC2)cc1C(=O)N1CCCCCC1 | 16.7% | – | –
7 | CN1CCN(C(=O)c2ccc(N(Cc3ccc(Cl)cc3)S(C)(=O)=O)cc2)CC1 | 20.4% | – | 16.4 µM [rising, single point]
8 | CCN(CC)C(=O)CSC1=Nc2ccccc2C2=NC(c3ccccc3)C(=O)N12 (centres undefined) | 59% | 20.6 µM [rising, single point] | –
21 | CCC(C)(C)n1nnnc1C(c1cc2cc(C)ccc2[nH]c1=O)N1CCCC1 (centres undefined) | 162% | 16.4 µM [rising, partial curve] | 6.51 µM [rising, single point]
20 | O=C(CN1C(=O)S/C(=C/c2ccncc2)C1=O)N1CCOCC1 | -0.647% | – | 1.3 µM [rising, partial curve, poor fit]

More entries follow:

Row | Structure (SMILES) | cell number change | AC50 [1] | AC50 [2]
22 | O=C(CC1NC(=O)NC1=O)Nc1ccc(Cl)cc1 (centres undefined) | 12.9% | – | 0.0058 µM [rising, full curve, poor fit]
23 | O=C(O)CNC(=S)N(Cc1ccccc1)Cc1cccnc1 | -7.68% | – | 0.13 µM [falling, full curve]
24 | Cc1cccc(NC(=O)CN2C(=O)CNC2=O)c1 | 9.21% | – | 20.6 µM [falling, single point]
25 | COc1ccccc1CNC(=O)c1ccc(S(=O)(=O)N(C)c2ccccc2)cc1 | 106% | 5.17 µM [rising, full curve] | –
26 | Cc1cc(NS(=O)(=O)c2ccc(NC(=O)NC(C)(C(F)(F)F)C(F)(F)F)cc2)no1 | -13.9% | – | 3.26 µM [falling, partial curve, poor fit]
27 | O=S(=O)(Nc1ccccc1)c1ccc(-c2cnc(C3CC3)o2)cc1 | -67.9% | 23.1 µM [falling, single point] | –
28 | COc1ccc(-c2nc(-c3ccccn3)no2)cc1 | 21.8% | – | 13 µM [rising, partial curve]
29 | COC(=O)[C@@]1(Cc2ccccc2)[C@H]2c3cc(C(=O)N4CCCC4)n(Cc4ccsc4Br)c3C[C@H]2CN1C(=O)c1ccccc1 | -38% | 3.66 µM [falling, full curve, poor fit] | 5.17 µM [falling, full curve, poor fit]
30 | COc1ccccc1CNC(=O)COc1cccc(-n2cnnn2)c1 | -20.2% | – | 0.461 µM [falling, full curve]
31 | COC(=O)CNc1nc(Cl)nc(N2CCC(C)CC2)n1 | 17.3% | 0.164 µM [rising, full curve, poor fit] | 0.092 µM [rising, full curve, poor fit]
32 | COc1ccc(CCNC(=O)COC(=O)c2cc(OC)c(OC)cc2OC)cc1 | 26.7% | 0.206 µM [rising, full curve, poor fit] | –
33 | COc1cc(SC)ccc1C(=O)Nc1c(Cl)cncc1Cl | 52.3% | 0.00461 µM [rising, full curve, poor fit] | 25.9 µM [rising, partial curve]
34 | O=C(CNC(=O)c1ccc(Cl)cc1Cl)OCc1nnc(-c2ccccc2)o1 | – | – | 11.6 µM [rising, partial curve]
35 | CC12CCC(=O)N1C(C(=O)Nc1cccc3ccccc13)CS2 (centres undefined) | -11.1% | – | 6.51 µM [falling, single point]
36 | Cc1ccc2cc3cc(C(=O)NCCCN4CCCC4)oc3nc2c1 | 1.19% | – | –
37 | CSc1nc(-c2ccccc2)nc(C(C)C)n1 | -17.9% | – | 32.6 µM [rising, single point]
38 | CN(CCN1CCOCC1)C(=O)c1cc(COc2ccc(F)c(F)c2)on1 | 7.51% | – | –
39 | COCC(C)NC(=O)C1CCN(S(=O)(=O)c2ccc3ccccc3c2)CC1 (centres undefined) | – | – | 29.1 µM [rising, single point]
40 | COc1ccc(-c2[nH]ncc2N=Nc2cc(C)cc(C)c2)cc1 | -27.8% | – | 0.116 µM [falling, full curve]
41 | Cc1nc(-c2ccc(S(=O)(=O)N3CCCN(CCc4ccccc4)CC3)s2)cs1 | 12.6% | – | 0.651 µM [rising, partial curve, poor fit]
42 | CN(Cc1c(O)ccc2c1oc(=O)c1ccccc12)C1CCCCC1 | -11.4% | – | 29.1 µM [rising, single point]

Row | Structure (SMILES) | cell number change | AC50 [1] | AC50 [2]
43 | CCC1CCCCN1C(=O)CSc1nnc(-c2ccc(OC)cc2)o1 (centres undefined) | -40.8% | 13 µM [falling, partial curve, poor fit] | 25.9 µM [falling, partial curve]
44 | COc1nnc(-c2ccc(C)c(S(=O)(=O)NC(C)(C)CO)c2)c2ccccc12 | 4.05% | – | 6.51 µM [falling, single point]
45 | CN(C)c1ccc(C(CC(=O)O)NC(=O)c2ccc(Cl)cc2)cc1 (centres undefined) | -9.59% | 6.51 µM [falling, single point] | 5.17 µM [falling, single point]
46 | COc1ccc(Nc2nnc(-c3ccc(C(N)=O)cc3)c3ccccc23)cc1 | -31.7% | 0.58 µM [falling, partial curve, poor fit] | –
47 | Cc1cc(C)c2nc3c(c(C(=O)O)c2c1)CCC3 | -0.198% | – | 1.64 µM [falling, full curve]
48 | COc1cc(OC)cc(C(=O)NNC(=O)c2cc3ccccc3cc2O)c1 | – | – | 5.8 µM [rising, full curve]
49 | CCn1ccc(C(=O)Nc2ccccc2SC)n1 | 12% | – | 6.51 µM [rising, single point]
50 | Cc1ccccc1C(OCCN(C)C)C1CCCCC1 (centres undefined) | -6.25% | – | 0.206 µM [falling, full curve, poor fit]
51 | O=C(N/N=C/c1ccc(N2CCOCC2)s1)c1ccccc1Br | -2.04% | – | –
52 | Nc1nonc1N/N=C/c1c(O)ccc2ccccc12 | -18.1% | – | 0.116 µM [falling, full curve, poor fit]
53 | O=C1CN(Cc2nc3cc(Cl)ccc3c(=O)[nH]2)CCN1 | 8.24% | – | –
54 | CC(C)Oc1ccc(S(=O)(=O)N2CCOCC2)cc1NC(=O)c1ccc(N2CCCC2=O)cc1 | 12% | – | –
55 | O=C(N/N=C/C=C\c1ccccc1)c1cnccn1 | 39.9% | – | –
56 | COc1ccc2cc(C(=O)C3CCCN(C(=O)c4sc(C)nc4C)C3)ccc2c1 (centres undefined) | -2.36% | – | 1.3 µM [rising, full curve]
57 | CCOc1ccc(NC(=O)c2cc(S(=O)(=O)N3CCCCC3)c[nH]2)cc1 | 7.49% | – | –
58 | COc1ccc(NC(=O)CSc2ccc3nnc(-c4cccnc4)n3n2)cc1OC | -3.47% | – | –
59 | NC(=O)C1CCN(C(c2ccccc2F)c2nnnn2Cc2ccco2)CC1 (centres undefined) | – | – | 7.31 µM [falling, partial curve, poor fit]
60 | N/C(=N\OC(=O)COc1ccc2ccccc2c1Br)c1ccncc1 | 6.37% | – | –
61 | CC1(C)C(=O)OC(c2cc(Br)ccc2O)C(C)(C)C1=O (centres undefined) | -27.8% | – | 18.4 µM [falling, single point]
62 | CC(C)CN1CN(S(=O)(=O)c2cccs2)c2nc3ccccc3nc21 | 8.4% | – | 0.461 µM [rising, partial curve]
